Source: publication PMC12752627, “Discovery of a Potent and Selective TEAD Degrader with Durable Degradation Activity” (Advanced Science, 2025)
The source gives many values for each of these; only a part stands here.

System: 867 cancer cell lines
Experiment: PRISM assay (barcoded cell line screening, 5 days);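 further: top test concentration 10 mM in eight-point dilution series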
Type: cell-based
Parameters: scale not given here
Protocol: The principle of the PRISM assay has been described elsewhere and was conducted as previously outlined by the PRISM team at the Broad Institute.^[ [14], [31] ^] In PRISM (MTS027) experiments, KG‐FP‐003 was tested across 867 different cancer cell lines. Cells were treated with eight concentration gradients, ranging from 4.6 nM to […], in triplicate dilutions over a period of five days. Each plate was treated with 20 µM bortezomib as a positive control and DMSO as a negative control. Three replicate experiments were performed for each compound. The resulting data were analyzed using GraphPad PRISM 9.5.

Q: Which KG-FP-003-AUC (SKMEL5_SKIN, PR500) does the source give for CNC(=O)c1cc2c(c(F)c1-c1c(Cl)c(F)cc3c1C[C@@](CN[C@H]1CC[C@H](C(=O)N4CCC(CC5CCN(C(=O)COc6ccc(N7CCC(=O)NC7=O)c(C)c6)CC5)CC4)CC1)(c1ccccc1)O3)[C@@H](O)[C@@H](C)C2 [KG-FP-003] here?
A: 1.00

Q: What about the KG-FP-003-AUC (SKMEL24_SKIN, PR500) of the same compound?
A: 0.91

Q: What about the KG-FP-003-AUC (SKMEL28_SKIN, PR300) of the same compound?
A: 0.98

Q: What about the KG-FP-003-AUC (SKMEL30_SKIN, PR500) of the same compound?
A: 0.70

Q: What about the KG-FP-003-AUC (SKMES1_LUNG, PR500) of the same compound?
A: 0.84

Q: What about the KG-FP-003-AUC (SKNAS_AUTONOMIC_GANGLIA, PR300) of the same compound?
A: 1.00

Q: What about the KG-FP-003-AUC (SKNAS_AUTONOMIC_GANGLIA, PR500) of the same compound?
A: 1.00

Q: And the KG-FP-003-AUC (SKNBE2_AUTONOMIC_GANGLIA, PR300)?
A: 0.98

Q: What about the KG-FP-003-AUC (SKNBE2_AUTONOMIC_GANGLIA, PR500) of the same compound?
A: 0.98

Q: And the KG-FP-003-AUC (SKNDZ_AUTONOMIC_GANGLIA, PR300)?
A: 1.00

Q: What about the KG-FP-003-AUC (SKNFI_AUTONOMIC_GANGLIA, PR300) of the same compound?
A: 1.00

Q: What about the KG-FP-003-AUC (SKNO1_HAEMATOPOIETIC_AND_LYMPHOID_TISSUE, PR300) of the same compound?
A: 0.91

Q: And the KG-FP-003-AUC (SKN_ENDOMETRIUM, PR300)?
A: 0.76

Q: And the KG-FP-003-AUC (SKOV3_OVARY, PR500)?
A: 0.99

Q: What about the KG-FP-003-AUC (SKPNDW_BONE, PR300) of the same compound?
A: 0.91

Q: And the KG-FP-003-AUC (SKUT1_SOFT_TISSUE, PR500)?
A: 0.90

Q: What about the KG-FP-003-AUC (SMSCTR_SOFT_TISSUE, PR300) of the same compound?
A: 0.92

Q: What about the KG-FP-003-AUC (SNB75_CENTRAL_NERVOUS_SYSTEM, PR500) of the same compound?
A: 0.90

Q: And the KG-FP-003-AUC (SNGM_ENDOMETRIUM, PR500)?
A: 0.24

Q: And the KG-FP-003-AUC (SNU1_STOMACH, PR300)?
A: 0.78

Q: And the KG-FP-003-AUC (SNU46_UPPER_AERODIGESTIVE_TRACT, PR500)?
A: 0.59

Q: What about the KG-FP-003-AUC (SNU61_LARGE_INTESTINE, PR500) of the same compound?
A: 0.81

Q: What about the KG-FP-003-AUC (SNU81_LARGE_INTESTINE, PR500) of the same compound?
A: 0.83

Q: What about the KG-FP-003-AUC (SNU119_OVARY, PR300) of the same compound?
A: 0.72

Q: And the KG-FP-003-AUC (SNU182_LIVER, PR300)?
A: 0.43

Q: And the KG-FP-003-AUC (SNU201_CENTRAL_NERVOUS_SYSTEM, PR300)?
A: 0.88

Q: And the KG-FP-003-AUC (SNU213_PANCREAS, PR500)?
A: 0.88

Q: What about the KG-FP-003-AUC (SNU216_STOMACH, PR300) of the same compound?
A: 0.75

Q: What about the KG-FP-003-AUC (SNU245_BILIARY_TRACT, PR500) of the same compound?
A: 1.00

Q: And the KG-FP-003-AUC (SNU308_BILIARY_TRACT, PR500)?
A: 1.00

Q: And the KG-FP-003-AUC (SNU398_LIVER, PR500)?
A: 0.98

Q: And the KG-FP-003-AUC (SNU407_LARGE_INTESTINE, PR500)?
A: 0.99

Q: And the KG-FP-003-AUC (SNU423_LIVER, PR500)?
A: 0.41

Q: What about the KG-FP-003-AUC (SNU449_LIVER, PR500) of the same compound?
A: 0.84

Q: And the KG-FP-003-AUC (SNU466_CENTRAL_NERVOUS_SYSTEM, PR500)?
A: 0.36

Q: And the KG-FP-003-AUC (SNU478_BILIARY_TRACT, PR300)?
A: 0.94

Q: And the KG-FP-003-AUC (SNU489_CENTRAL_NERVOUS_SYSTEM, PR300)?
A: 0.68

Q: And the KG-FP-003-AUC (SNU601_STOMACH, PR500)?
A: 0.94

Q: What about the KG-FP-003-AUC (SNU638_STOMACH, PR300) of the same compound?
A: 0.90

Q: What about the KG-FP-003-AUC (SNU668_STOMACH, PR500) of the same compound?
A: 0.44

Q: What about the KG-FP-003-AUC (SNU685_ENDOMETRIUM, PR500) of the same compound?
A: 0.96

Q: And the KG-FP-003-AUC (SNU719_STOMACH, PR500)?
A: 0.96

Q: What about the KG-FP-003-AUC (SNU761_LIVER, PR500) of the same compound?
A: 0.88

Q: What about the KG-FP-003-AUC (SNU840_OVARY, PR500) of the same compound?
A: 0.78

Q: What about the KG-FP-003-AUC (SNU869_BILIARY_TRACT, PR500) of the same compound?
A: 0.99

Q: And the KG-FP-003-AUC (SNU878_LIVER, PR300)?
A: 0.86

Q: What about the KG-FP-003-AUC (SNU886_LIVER, PR500) of the same compound?
A: 0.77

Q: And the KG-FP-003-AUC (SNU899_UPPER_AERODIGESTIVE_TRACT, PR300)?
A: 0.54

Q: And the KG-FP-003-AUC (SNU1041_UPPER_AERODIGESTIVE_TRACT, PR500)?
A: 0.77

Q: What about the KG-FP-003-AUC (SNU1066_UPPER_AERODIGESTIVE_TRACT, PR500) of the same compound?
A: 0.99

Q: And the KG-FP-003-AUC (SNU1076_UPPER_AERODIGESTIVE_TRACT, PR500)?
A: 0.72

Q: And the KG-FP-003-AUC (SNU1077_ENDOMETRIUM, PR500)?
A: 0.62

Q: And the KG-FP-003-AUC (SNU1079_BILIARY_TRACT, PR500)?
A: 0.77

Q: And the KG-FP-003-AUC (SNU1105_CENTRAL_NERVOUS_SYSTEM, PR500)?
A: 0.72

Q: What about the KG-FP-003-AUC (SNU1196_BILIARY_TRACT, PR500) of the same compound?
A: 1.00

Q: And the KG-FP-003-AUC (SNU1214_UPPER_AERODIGESTIVE_TRACT, PR500)?
A: 0.84

Q: What about the KG-FP-003-AUC (SNU1544_LARGE_INTESTINE, PR300) of the same compound?
A: 0.91

Q: What about the KG-FP-003-AUC (SNU2372_BREAST, PR300) of the same compound?
A: 1.00

Q: And the KG-FP-003-AUC (SNUC2A_LARGE_INTESTINE, PR500)?
A: 0.92

Q: What about the KG-FP-003-AUC (SNUC4_LARGE_INTESTINE, PR500) of the same compound?
A: 1.00

Q: What about the KG-FP-003-AUC (SQ1_LUNG, PR500) of the same compound?
A: 0.60

Q: And the KG-FP-003-AUC (SSP25_BILIARY_TRACT, PR300)?
A: 0.93

Q: And the KG-FP-003-AUC (STM9101_SOFT_TISSUE, PR300)?
A: 0.99

Q: And the KG-FP-003-AUC (SUDHL1_HAEMATOPOIETIC_AND_LYMPHOID_TISSUE, PR300)?
A: 0.70

Q: And the KG-FP-003-AUC (SUDHL4_HAEMATOPOIETIC_AND_LYMPHOID_TISSUE, PR300)?
A: 0.91

Q: And the KG-FP-003-AUC (SUDHL8_HAEMATOPOIETIC_AND_LYMPHOID_TISSUE, PR300)?
A: 0.97

Q: And the KG-FP-003-AUC (SUIT2_PANCREAS, PR500)?
A: 1.00

Q: And the KG-FP-003-AUC (SUM149PT_BREAST, PR300)?
A: 0.66

Q: And the KG-FP-003-AUC (SUM159PT_BREAST, PR300)?
A: 0.96

Q: And the KG-FP-003-AUC (SUPB15_HAEMATOPOIETIC_AND_LYMPHOID_TISSUE, PR300)?
A: 0.98

Q: And the KG-FP-003-AUC (SUPT11_HAEMATOPOIETIC_AND_LYMPHOID_TISSUE, PR300)?
A: 0.91

Q: What about the KG-FP-003-AUC (SUSA_TESTIS, PR300) of the same compound?
A: 0.97

Q: And the KG-FP-003-AUC (SW13_ADRENAL_CORTEX, ACH-001401, PR300)?
A: 0.99

Q: And the KG-FP-003-AUC (SW156_KIDNEY, ACH-001398, PR300)?
A: 0.91

Q: And the KG-FP-003-AUC (SW480_LARGE_INTESTINE, ACH-000842, PR500)?
A: 0.99

Q: What about the KG-FP-003-AUC (SW579_THYROID, ACH-000163, PR500) of the same compound?
A: 0.51

Q: And the KG-FP-003-AUC (SW620_LARGE_INTESTINE, ACH-000651, PR500)?
A: 0.99

Q: And the KG-FP-003-AUC (SW626_LARGE_INTESTINE, ACH-001399, PR300)?
A: 0.53

Q: What about the KG-FP-003-AUC (SW756_CERVIX, ACH-001402, PR300) of the same compound?
A: 0.93

Q: What about the KG-FP-003-AUC (SW780_URINARY_TRACT, ACH-000384, PR500) of the same compound?
A: 0.95

Q: And the KG-FP-003-AUC (SW837_LARGE_INTESTINE, ACH-000421, PR500)?
A: 1.00

Q: And the KG-FP-003-AUC (SW900_LUNG, ACH-000669, PR500)?
A: 0.82

Q: What about the KG-FP-003-AUC (SW948_LARGE_INTESTINE, ACH-000680, PR500) of the same compound?
A: 1.00

Q: And the KG-FP-003-AUC (SW954_CERVIX, ACH-001400, PR300)?
A: 0.56

Q: And the KG-FP-003-AUC (SW1088_CENTRAL_NERVOUS_SYSTEM, PR500)?
A: 0.74

Q: What about the KG-FP-003-AUC (SW1116_LARGE_INTESTINE, ACH-000489, PR300) of the same compound?
A: 0.97

Q: What about the KG-FP-003-AUC (SW1271_LUNG, ACH-000890, PR500) of the same compound?
A: 0.78

Q: What about the KG-FP-003-AUC (SW1353_BONE, ACH-000418, PR500) of the same compound?
A: 0.52

Q: And the KG-FP-003-AUC (SW1463_LARGE_INTESTINE, ACH-000470, PR300)?
A: 0.89

Q: And the KG-FP-003-AUC (SW1573_LUNG, ACH-000677, PR500)?
A: 0.97

Q: What about the KG-FP-003-AUC (SW1710_URINARY_TRACT, ACH-000566, PR500) of the same compound?
A: 0.56

Q: What about the KG-FP-003-AUC (SW1783_CENTRAL_NERVOUS_SYSTEM, ACH-000883, PR300) of the same compound?
A: 0.98

Q: And the KG-FP-003-AUC (SW1990_PANCREAS, ACH-000155, PR500)?
A: 0.78

Q: What about the KG-FP-003-AUC (T3M5_THYROID, ACH-002042, PR300) of the same compound?
A: 0.70

Q: What about the KG-FP-003-AUC (T3M10_LUNG, ACH-000813, PR500) of the same compound?
A: 0.98
